PubChem BioAssay AID1259254 | NCATS, 2017

Screen: 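Gene knock-downs that lead to re-replication, shown by excess G2 DNA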 (primary screen)
Cells: human HCT116 colorectal cancer cells
Reagents: single siRNA against human genes
Time to read-out: 3 days
Measured: 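Imaged Hoechst DNA stain sorts each cell into a cycle phase by DNA amount; per plate, G2 fraction set to 0% for non-targeting and 100% for GMNN siRNA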
Direction: G2 robust z-score and G2 cells, % of GMNN control: higher = more G2 cells, more excess DNA replication
Rule for the call: 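An siRNA counts as active if its G2 robust z-score lies at least 5 MADs above the screen median; here such calls match roughly 38% of GMNN control or more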
Here is a random part of about 59,000 deposited reagents. In the full data, about 1,550 (2.6%) were called active. 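G2 share is only a proxy for re-replication; each gene was hit by three separate siRNAs, and active genes were retested.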 Unmarked entries are inactive. The numbers tell different reagents against one gene apart. Not all columns of the deposit are shown. Not given: the amount of reagent.

| Gene | reagent | G2 robust z-score | G2 cells, % of GMNN control |
| --- | --- | --- | --- |
| ACSM1 | 1 | 0.229 | 4.58 |
| ACSM1 | 2 | -0.559 | -0.969 |
| ACSM1 | 3 | -0.333 | 0.625 |
| KRT222 | 1 | -0.859 | -3.08 |
| KRT222 | 2 | 0.122 | 3.82 |
| KRT222 | 3 | -0.417 | 0.0318 |
| ZNF875 | 1 | -0.208 | 1.51 |
| ZNF875 | 2 | 0.559 | 6.9 |
| ZNF875 | 3 | -0.948 | -3.71 |
| NLRP9 | 1 | 0.125 | 3.85 |
| NLRP9 | 2 | -0.197 | 1.58 |
| NLRP9 | 3 | -0.339 | 0.585 |
| ZNF26 | 1 | -0.502 | -0.566 |
| ZNF26 | 2 | -0.17 | 1.77 |
| ZNF26 | 3 | -0.688 | -1.88 |
| SLC25A23 | 1 | -1.07 | -4.59 |
| SLC25A23 | 2 | 2.02 | 17.2 |
| SLC25A23 | 3 | -0.657 | -1.65 |
| GRM6 | 1 | 1.11 | 10.8 |
| GRM6 | 2 | 0.157 | 4.07 |
| GRM6 | 3 | 0.319 | 5.21 |
| ESF1 | 1 | 2.81 | 22.7 |
| ESF1 | 2 | -0.139 | 1.99 |
| ESF1 | 3 | 2.39 | 19.8 |
| SFTPA1 | 1 | 6.35 (active) | 47.6 |
| SFTPA1 | 2 | -0.208 | 1.51 |
| SFTPA1 | 3 | -0.00231 | 2.95 |
| LRRC55 | 1 | -1.49 | -7.5 |
| LRRC55 | 2 | -0.0307 | 2.75 |
| LRRC55 | 3 | -0.376 | 0.32 |
| AJM1 | 1 | 2.54 | 20.8 |
| AJM1 | 2 | -0.661 | -1.68 |
| AJM1 | 3 | 2.87 | 23.2 |
| COL17A1 | 1 | -0.29 | 0.925 |
| COL17A1 | 2 | 0.405 | 5.81 |
| COL17A1 | 3 | -0.656 | -1.65 |
| IFT74 | 1 | -0.494 | -0.509 |
| IFT74 | 2 | 0.168 | 4.15 |
| IFT74 | 3 | 1.16 | 11.1 |
| TMEM255B | 1 | 2.31 | 19.2 |
| TMEM255B | 2 | 2.18 | 18.3 |
| TMEM255B | 3 | 0.559 | 6.9 |
| E2F3 | 1 | -0.791 | -2.6 |
| E2F3 | 2 | -1.04 | -4.34 |
| E2F3 | 3 | -1.05 | -4.41 |
| TAS2R19 | 1 | 3.9 | 30.4 |
| TAS2R19 | 2 | -0.317 | 0.739 |
| TAS2R19 | 3 | -0.259 | 1.14 |

7 of these entries in another layout:
SLC25A23 #1
- G2 robust z-score: -1.07
- G2 cells, % of GMNN control: -4.59

SLC25A23 #2
- G2 robust z-score: 2.02
- G2 cells, % of GMNN control: 17.2

SLC25A23 #3
- G2 robust z-score: -0.657
- G2 cells, % of GMNN control: -1.65

GRM6 #1
- G2 robust z-score: 1.11
- G2 cells, % of GMNN control: 10.8

GRM6 #2
- G2 robust z-score: 0.157
- G2 cells, % of GMNN control: 4.07

GRM6 #3
- G2 robust z-score: 0.319
- G2 cells, % of GMNN control: 5.21

ESF1 #1
- G2 robust z-score: 2.81
- G2 cells, % of GMNN control: 22.7
